Drawing on publication PMC10693060, this text covers binding for one substance.

Chains of the proteins cited; added tags and fusions are not shown.
UniProt P29466: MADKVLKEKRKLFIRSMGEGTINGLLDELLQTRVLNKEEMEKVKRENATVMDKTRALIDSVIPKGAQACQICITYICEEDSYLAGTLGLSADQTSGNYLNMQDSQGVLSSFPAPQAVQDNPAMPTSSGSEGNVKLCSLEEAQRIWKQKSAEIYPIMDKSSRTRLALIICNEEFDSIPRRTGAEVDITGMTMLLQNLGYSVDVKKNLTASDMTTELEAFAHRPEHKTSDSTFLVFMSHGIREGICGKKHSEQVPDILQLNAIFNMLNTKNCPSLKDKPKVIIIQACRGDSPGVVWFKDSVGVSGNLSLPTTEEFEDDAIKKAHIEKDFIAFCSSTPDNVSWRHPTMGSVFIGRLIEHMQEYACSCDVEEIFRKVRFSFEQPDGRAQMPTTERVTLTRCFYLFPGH

Results are given in words; binding and its absence hold for the method and conditions named. In cells and extracts the contact can be indirect. Some binding calls cover weakened binding; strength is not graded here.

The target of this assay is T1, caspase-3 (human (endogenous in THP-1)) (UniProt P42574).
T1 sequence: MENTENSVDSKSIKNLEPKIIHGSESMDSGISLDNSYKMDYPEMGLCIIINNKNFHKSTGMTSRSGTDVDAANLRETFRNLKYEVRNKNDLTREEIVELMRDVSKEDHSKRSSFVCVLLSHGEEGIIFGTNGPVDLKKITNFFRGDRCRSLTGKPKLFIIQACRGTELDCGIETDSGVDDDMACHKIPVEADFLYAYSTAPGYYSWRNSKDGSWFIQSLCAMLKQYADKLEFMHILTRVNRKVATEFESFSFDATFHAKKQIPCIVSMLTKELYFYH
Briefly: co-IP; THP-1 macrophage lysate mixed with caspase-1 or caspase-3 antibody and protein A/G-agarose beads overnight at 4 °C; nonimmune IgG as negative control; detection by western blot; cells treated with nicotine (and MT).

As for “caspase-1 (from UniProt P29466 1-404) (enzyme)”, the binding entry is reported as “binds”.
